Test results published in article PMC7039678.
Where a chain is given by its changes, count along the chain named. In names and notes the source's numbering stands. Results are given in words; binding and its absence hold for the method and conditions named. For part of these data: In cells and extracts the contact can be indirect. Some binding calls cover weakened binding; strength is not graded here. For part of these data: Sequences can lack the tags named with a protein. Values belong to the binder of their own block, whether it stands above or below them.

Assays:
[1] = target: T1, 3x Flag-tagged WT EDEM2 (human) (UniProt Q9BV94); experiment: co-IP; lysates of transfected HCT116 knockout cells; anti-Flag antibody and protein G-coupled Sepharose beads; washed with 50 mM Tris/Cl pH 8.0, 1% NP-40, 150 mM NaCl, then PBS; blots of endogenous partners after reducing and non-reducing SDS-PAGE
T1 sequence: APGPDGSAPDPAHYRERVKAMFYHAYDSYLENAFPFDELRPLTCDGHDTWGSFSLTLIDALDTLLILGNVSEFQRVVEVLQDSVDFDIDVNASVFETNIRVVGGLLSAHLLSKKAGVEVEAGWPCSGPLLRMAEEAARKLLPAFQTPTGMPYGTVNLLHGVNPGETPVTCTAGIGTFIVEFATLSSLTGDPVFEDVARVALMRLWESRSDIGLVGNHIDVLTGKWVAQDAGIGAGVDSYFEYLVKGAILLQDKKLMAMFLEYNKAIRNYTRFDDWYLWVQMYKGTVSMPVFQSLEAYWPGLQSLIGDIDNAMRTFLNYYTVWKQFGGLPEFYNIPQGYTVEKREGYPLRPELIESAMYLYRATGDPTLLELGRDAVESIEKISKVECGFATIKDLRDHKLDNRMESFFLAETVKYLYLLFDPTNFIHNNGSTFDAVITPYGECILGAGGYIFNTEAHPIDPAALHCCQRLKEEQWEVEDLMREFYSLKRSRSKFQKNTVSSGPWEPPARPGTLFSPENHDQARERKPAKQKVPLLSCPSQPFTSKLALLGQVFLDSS

[2] = target: T2, 3x Flag-tagged EDEM2 C65A (human) (UniProt Q9BV94); experiment: as above
T2 sequence: T1 sequence with C44A

[3] = target: T3, 3x Flag-tagged EDEM2 C408A (human) (UniProt Q9BV94); experiment: as above
T3 sequence: T1 sequence with C387A

[4] = target: T4, 3x Flag-tagged EDEM2 C558A (human) (UniProt Q9BV94); experiment: as above
T4 sequence: T1 sequence with C537A

[5] = target: T5, endogenous EDEM2 (human (endogenous in HCT116)) (UniProt Q9BV94); experiment: non-reducing SDS-PAGE with immunoblotting (disulfide-bonded complex); lysates of untransfected HCT116 WT, EDEM2-KO and TXNDC11-KO cells; reducing against non-reducing SDS-PAGE; blots with anti-EDEM2, anti-PDI and anti-TXNDC11
T5 sequence: T1 sequence

Myc-tagged EDEM2 (human) = target: T6, Myc-tagged EDEM2 (human) (UniProt Q9BV94); experiment: non-reducing SDS-PAGE with immunoblotting (disulfide-bonded complex); lysates of TXNDC11-KO cells transfected with 3x Flag-tagged TXNDC11 (WT or cysteine mutant) and Myc-tagged EDEM2; blots with anti-EDEM2 and anti-TXNDC11
T6 sequence: T1 sequence

binding [1]: binds | binding [2]: binds | binding [3]: binds | binding [4]: no binding | binding [5]: binds
B1: endogenous TXNDC11 (protein, UniProt Q6PKC3-2 1-958)
chain: MSECGGRGGGSSSSEDAEDEGGGGGGPAGSDCLSSSPTLATASSAGRLRRGLRGAFLMARQRPELLCGAVALGCALLLALKFTCSRAKDVIIPAKPPVSFFSLRSPVLDLFQGQLDYAEYVRRDSEVVLLFFYAPWCGQSIAARAEIEQAASRLSDQVLFVAINCWWNQGKCRKQKHFFYFPVIYLYHRSFGPIEYKGPMSAVYIEKFVRRVMKPLLYIPSQSELLDFLSNYEPGVLGYFEFSGSPQPPGYLTFFTSALHSLKKDYLGTVRFGVITNKHLAKLVSLVHSGSVYLHRHFNTSLVFPREVLNYTAENICKWALENQETLFRWLRPHGGKSLLLNNELKKGPALFLFIPFNPLAESHPLIDEITEVALEYNNCHGDQVVERLLQHLRRVDAPVLESLALEVPAQLPDPPTITASPCCNTVVLPQWHSFSRTHNVCELCVNQTSGGMKPSSVSVPQCSFFEMAAALDSFYLKEQTFYHVASDSIECSNFLTSYSPFSYYTACCRTISRGVSGFIDSEQGVFEAPTVAFSSLEKKCEVDAPSSVPHIEENRYLFPEVDMTSTNFTGLSCRTNKTLNIYLLDSNLFWLYAERLGAPSSTQVKEFAAIVDVKEESHYILDPKQALMKLTLESFIQNFSVLYSPLKRHLIGSGSAQFPSQHLITEVTTDTFWEVVLQKQDVLLLYYAPWCGFCPSLNHIFIQLARNLPMDTFTVARIDVSQNDLPWEFMVDRLPTVLFFPCNRKDLSVKYPEDVPITLPNLLRFILHHSDPASSPQNVANSPTKECLQSEAVLQRGHISHLEREIQKLRAEISSLQRAQVQVESQLSSARRDEHRLRQQQRALEEQHSLLHAHSEQLQALYEQKTRELQELARKLQELADASENLLTENTWLKILVATMERKLEGRDGAESLAAQREVHPKQPEPSATPQLPGSSPPPANVSATLVSERNKENRTD
modifications: N-glycosylated

binding (Myc-tagged EDEM2 (human)): binds
B2: 3x Flag-tagged TXNDC11 (WT) (protein, UniProt Q6PKC3-2 1-958)
chain: B1 chain
modifications: N-glycosylated

binding (Myc-tagged EDEM2 (human)): no binding
B3: 3x Flag-tagged C692S mutant of TXNDC11 (protein, UniProt Q6PKC3-2 1-958)
chain: B1 chain with C692S

binding (Myc-tagged EDEM2 (human)): binds
B4: 3x Flag-tagged C695S mutant of TXNDC11 (protein, UniProt Q6PKC3-2 1-958)
chain: B1 chain with C695S

binding [1]: no binding | binding [2]: no binding | binding [3]: no binding | binding [4]: no binding
B5: endogenous ERp72 (enzyme, UniProt P13667 21-645)
chain: VAGAEGPDEDSSNRENAIEDEEEEEEEDDDEEEDDLEVKEENGVLVLNDANFDNFVADKDTVLLEFYAPWCGHCKQFAPEYEKIANILKDKDPPIPVAKIDATSASVLASRFDVSGYPTIKILKKGQAVDYEGSRTQEEIVAKVREVSQPDWTPPPEVTLVLTKENFDEVVNDADIILVEFYAPWCGHCKKLAPEYEKAAKELSKRSPPIPLAKVDATAETDLAKRFDVSGYPTLKIFRKGRPYDYNGPREKYGIVDYMIEQSGPPSKEILTLKQVQEFLKDGDDVIIIGVFKGESDPAYQQYQDAANNLREDYKFHHTFSTEIAKFLKVSQGQLVVMQPEKFQSKYEPRSHMMDVQGSTQDSAIKDFVLKYALPLVGHRKVSNDAKRYTRRPLVVVYYSVDFSFDYRAATQFWRSKVLEVAKDFPEYTFAIADEEDYAGEVKDLGLSESGEDVNAAILDESGKKFAMEPEEFDSDTLREFVTAFKKGKLKPVIKSQPVPKNNKGPVKVVVGKTFDSIVMDPKKDVLIEFYAPWCGHCKQLEPVYNSLAKKYKGQKGLVIAKMDATANDVPSDRYKVEGFPTIYFAPSGDKKNPVKFEGGDRDLEHLSKFIEEHATKLSRTKEEL
